PubChem BioAssay AID743454 | Peter MacCallum Cancer Centre | 2014

Assay: 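Search for knock-downs that restore vorinostat killing in resistant colon cancer cells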 (primary screen)
Cells: human HCT116-VR colon cancer cells, selected for vorinostat resistance
Reagents: siRNA pool against human genes, 40 nM siRNA pool
Timing: vorinostat for 24 h, read-out about 72 h after transfection
Challenge: vorinostat at 2.5 µM final
Measured: 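Cell viability by CellTiter-Fluor and caspase 3/7 activity by luminescence, each scaled to mock wells per plate, duplicates averaged, then robust z-scored over all plates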
Direction: viability robust z-score: higher = more viable cells than screen typical; caspase robust z-score: higher = more caspase 3/7 activity than screen typical
Hit rule: 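a knock-down is a hit when classed RV1 or RV2 for lowered viability, or CA1 or CA2 for caspase activation; those lethal without drug were dropped; hits were retested singly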
In all, the deposit lists about 18,000 reagents; this is a part drawn at random. 450 of them (2.5%) were called active. 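Single biological run; no consistent viability z cut-off exists, so the class columns, not z-scores, define the calls.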 A number with no mark means an inactive call. Reagents against one gene are numbered here.

gene symbol | pool no. | viability hit class | caspase hit class | viability robust z-score | caspase robust z-score
CCDC106 | 1 | no change | no change | 0.71 | 1.32
STX19 | 1 | no change | no change | -1.06 | 0.07
MS4A8 | 1 | no change | no change | -0.34 | -0.48
SNCAIP | 1 | no change | no change | 0.37 | 1.23
CCDC178 | 1 | no change | no change | -0.02 | -0.4
ZNF224 | 1 | no change | no change | 0.94 | -0.82
EDEM3 | 1 | no change | no change | 0.48 | -0.38
SLC19A1 | 1 | no change | no change | 1.08 | -0.98
SUCLG1 | 1 | no change | no change | 0.19 | -0.57
GPIHBP1 | 1 | no change | no change | -1.64 | 1.88
TBC1D3F | 1 | no change | no change | 0.7 | 2.81
TBC1D3F | 2 | no change | no change | 0.18 | -0.35
KLK13 | 1 | no change | no change | 0.06 | 2.11
SPANXA2 | 1 | no change | no change | -3.14 | -0.68
SLC18A1 | 1 | no change | no change | -0.81 | -0.35
SPANXN2 | 1 | no change | no change | 0.78 | 0.1
PMP22 | 1 | no change | no change | -0.13 | -0.75
F10 | 1 | no change | no change | 0.72 | -0.45
SLC5A5 | 1 | no change | no change | -1.56 | 1.9
PPP1R21 | 1 | no change | no change | -0.57 | -0.15
ACTL6A | 1 | no change | no change | 0.17 | 0.4
HRK | 1 | no change | no change | -4.83 | 2.25
GK5 | 1 | no change | no change | -0.36 | 0.2
